Data: patent US12070454B1, “Anesthetic nerve block and method” (PFOF LLC, priority 2022, dated 2024)

Details: after addition of alkaline NaHCO3/Na2CO3/NaOH mixture

CCN(CC)CC(=O)Nc1c(C)cccc1C [lidocaine]
unprotonated (unbound) fraction: ~95%
